The source of these data is patent US20180311369A1 (WRIGHT STATE UNIVERSITY, published 2018).

For the experiment, the target named is MAGI-1 PDZ2 domain. Briefly: ligand binding assay with purified PDZ domain.

No constants are given. Whether binding was seen depends on the method and setting.

With GRKKRRQRRRPPQYKTDGITVV (also called TAT-PDZ3 peptide) [TAT-CAR^Ex8], the binding result is given as “no binding”.
